Assay results as given in the supplement of paper PMC8728848.
The other results are listed elsewhere or left out.

Experiments:
Assay in all cases: glycan array binding signal (z-score within array); higher = stronger binding
Settings in all cases: glycan notation: IUPAC condensed, linker removed
[1] = target: Gal(b1-4)GlcNAc(b1-3)Gal(b1-4)Glc
Outline: (§1)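 The binding signal is a Z-score computed within each array and averaged over linkers. Arrays of the same protein sequence at different concentrations or buffers were also averaged together. Data originate from 3228 arrays in the Consortium for Functional Glycomics database, kept only where the protein sequence was available.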

[2] = target: Gal(b1-4)GlcNAc(b1-3)Gal(b1-4)GlcNAc
Outline: as §1

[3] = target: Gal(b1-4)GlcNAc(b1-3)Gal(b1-4)GlcNAc(b1-2)Man(a1-3)[Gal(b1-4)GlcNAc(b1-3)Gal(b1-4)GlcNAc(b1-2)Man(a1-6)]Man(b1-4)GlcNAc(b1-4)GlcNAc
Outline: as §1

[4] = target: Gal(b1-4)GlcNAc(b1-3)Gal(b1-4)GlcNAc(b1-2)Man(a1-3)[Gal(b1-4)GlcNAc(b1-3)Gal(b1-4)GlcNAc(b1-2)Man(a1-6)]Man(b1-4)GlcNAc(b1-4)[Fuc(a1-6)]GlcNAc
Outline: as §1

[5] = target: Gal(b1-4)GlcNAc(b1-3)Gal(b1-4)GlcNAc(b1-2)[Gal(b1-4)GlcNAc(b1-3)Gal(b1-4)GlcNAc(b1-6)]Man(a1-6)[Gal(b1-4)GlcNAc(b1-3)Gal(b1-4)GlcNAc(b1-2)Man(a1-3)]Man(b1-4)GlcNAc(b1-4)GlcNAc
Outline: as §1

[6] = target: Gal(b1-4)GlcNAc(b1-3)Gal(b1-4)GlcNAc(b1-2)[Gal(b1-4)GlcNAc(b1-3)Gal(b1-4)GlcNAc(b1-6)]Man(a1-6)[Gal(b1-4)GlcNAc(b1-3)Gal(b1-4)GlcNAc(b1-2)Man(a1-3)]Man(b1-4)GlcNAc(b1-4)[Fuc(a1-6)]GlcNAc
Outline: as §1

[7] = target: Gal(b1-4)GlcNAc(b1-3)Gal(b1-4)GlcNAc(b1-3)Gal(b1-4)GlcNAc
Outline: as §1

[8] = target: Gal(b1-4)GlcNAc(b1-3)Gal(b1-4)GlcNAc(b1-3)Gal(b1-4)GlcNAc(b1-2)Man(a1-3)[Gal(b1-4)GlcNAc(b1-3)Gal(b1-4)GlcNAc(b1-3)Gal(b1-4)GlcNAc(b1-2)Man(a1-6)]Man(b1-4)GlcNAc(b1-4)GlcNAc
Outline: as §1

[9] = target: Gal(b1-4)GlcNAc(b1-3)Gal(b1-4)GlcNAc(b1-3)Gal(b1-4)GlcNAc(b1-2)Man(a1-3)[Gal(b1-4)GlcNAc(b1-3)Gal(b1-4)GlcNAc(b1-3)Gal(b1-4)GlcNAc(b1-2)Man(a1-6)]Man(b1-4)GlcNAc(b1-4)[Fuc(a1-6)]GlcNAc
Outline: as §1

[10] = target: Gal(b1-4)GlcNAc(b1-3)Gal(b1-4)GlcNAc(b1-3)Gal(b1-4)GlcNAc(b1-2)[Gal(b1-4)GlcNAc(b1-3)Gal(b1-4)GlcNAc(b1-3)Gal(b1-4)GlcNAc(b1-6)]Man(a1-6)[Gal(b1-4)GlcNAc(b1-3)Gal(b1-4)GlcNAc(b1-3)Gal(b1-4)GlcNAc(b1-2)Man(a1-3)]Man(b1-4)GlcNAc(b1-4)[Fuc(a1-6)]GlcNAc
Outline: as §1

[11] = target: Gal(b1-4)GlcNAc(b1-3)Gal(b1-4)GlcNAc(b1-3)Gal(b1-4)GlcNAc(b1-3)Gal(b1-4)GlcNAc(b1-2)Man(a1-3)[Gal(b1-4)GlcNAc(b1-3)Gal(b1-4)GlcNAc(b1-3)Gal(b1-4)GlcNAc(b1-3)Gal(b1-4)GlcNAc(b1-2)Man(a1-6)]Man(b1-4)GlcNAc(b1-4)GlcNAc
Outline: as §1

[12] = target: Gal(b1-4)GlcNAc(b1-3)Gal(b1-4)GlcNAc(b1-3)Gal(b1-4)GlcNAc(b1-3)Gal(b1-4)GlcNAc(b1-2)Man(a1-3)[Gal(b1-4)GlcNAc(b1-3)Gal(b1-4)GlcNAc(b1-3)Gal(b1-4)GlcNAc(b1-3)Gal(b1-4)GlcNAc(b1-2)Man(a1-6)]Man(b1-4)GlcNAc(b1-4)[Fuc(a1-6)]GlcNAc
Outline: as §1

[13] = target: Gal(b1-4)GlcNAc(b1-3)Gal(b1-4)GlcNAc(b1-3)Gal(b1-4)GlcNAc(b1-3)Gal(b1-4)GlcNAc(b1-2)[Gal(b1-4)GlcNAc(b1-3)Gal(b1-4)GlcNAc(b1-3)Gal(b1-4)GlcNAc(b1-3)Gal(b1-4)GlcNAc(b1-6)]Man(a1-6)[Gal(b1-4)GlcNAc(b1-3)Gal(b1-4)GlcNAc(b1-3)Gal(b1-4)GlcNAc(b1-3)Gal(b1-4)GlcNAc(b1-2)Man(a1-3)]Man(b1-4)GlcNAc(b1-4)[Fuc(a1-6)]GlcNAc
Outline: as §1

[14] = target: Gal(b1-4)GlcNAc(b1-3)Gal(b1-4)GlcNAc(b1-3)Gal(b1-4)GlcNAc(b1-3)Gal(b1-4)GlcNAc(b1-3)Gal(b1-4)GlcNAc(b1-2)Man(a1-3)[Gal(b1-4)GlcNAc(b1-3)Gal(b1-4)GlcNAc(b1-3)Gal(b1-4)GlcNAc(b1-3)Gal(b1-4)GlcNAc(b1-3)Gal(b1-4)GlcNAc(b1-2)Man(a1-6)]Man(b1-4)GlcNAc(b1-4)GlcNAc
Outline: as §1

[15] = target: Gal(b1-4)GlcNAc(b1-3)Gal(b1-4)GlcNAc(b1-3)Gal(b1-4)GlcNAc(b1-3)Gal(b1-4)GlcNAc(b1-3)Gal(b1-4)GlcNAc(b1-2)Man(a1-3)[Gal(b1-4)GlcNAc(b1-3)Gal(b1-4)GlcNAc(b1-3)Gal(b1-4)GlcNAc(b1-3)Gal(b1-4)GlcNAc(b1-3)Gal(b1-4)GlcNAc(b1-2)Man(a1-6)]Man(b1-4)GlcNAc(b1-4)[Fuc(a1-6)]GlcNAc
Outline: as §1

[16] = target: Gal(b1-4)GlcNAc(b1-3)Gal(b1-4)GlcNAc(b1-3)Gal(b1-4)GlcNAc(b1-3)Gal(b1-4)GlcNAc(b1-3)Gal(b1-4)GlcNAc(b1-2)[Gal(b1-4)GlcNAc(b1-3)Gal(b1-4)GlcNAc(b1-3)Gal(b1-4)GlcNAc(b1-3)Gal(b1-4)GlcNAc(b1-3)Gal(b1-4)GlcNAc(b1-6)]Man(a1-6)[Gal(b1-4)GlcNAc(b1-3)Gal(b1-4)GlcNAc(b1-3)Gal(b1-4)GlcNAc(b1-3)Gal(b1-4)GlcNAc(b1-3)Gal(b1-4)GlcNAc(b1-2)Man(a1-3)]Man(b1-4)GlcNAc(b1-4)[Fuc(a1-6)]GlcNAc
Outline: as §1

[17] = target: Gal(b1-4)GlcNAc(b1-3)Gal(b1-4)GlcNAc(b1-3)Gal(b1-4)GlcNAc(b1-3)Gal(b1-4)GlcNAc(b1-3)Gal(b1-4)GlcNAc(b1-3)Gal(b1-4)GlcNAc(b1-2)Man(a1-3)[Gal(b1-4)GlcNAc(b1-3)Gal(b1-4)GlcNAc(b1-3)Gal(b1-4)GlcNAc(b1-3)Gal(b1-4)GlcNAc(b1-3)Gal(b1-4)GlcNAc(b1-3)Gal(b1-4)GlcNAc(b1-2)Man(a1-6)]Man(b1-4)GlcNAc(b1-4)GlcNAc
Outline: as §1

[18] = target: Gal(b1-4)GlcNAc(b1-3)Gal(b1-4)GlcNAc(b1-3)GalNAc
Outline: as §1

[19] = target: Gal(b1-4)GlcNAc(b1-3)Gal(b1-4)GlcNAc(b1-3)[Gal(b1-4)GlcNAc(b1-3)Gal(b1-4)GlcNAc(b1-6)]GalNAc
Outline: as §1

B1: PX9961K-bvu-480-28-480 (Bacteroides vulgatus) (protein)
chain: NKIPTTMAFRTVTDVDNAVNGLYDLMSGSGYYGAAMFAYGDMKGDDMQSSEESGVCNTCYMFNHRPNSLNAGSLWGRPFYILREAWNILNAIAEGKIESGDEKKLNALKGETMAVIALCQFDLTRCFGYPYTKDKGASLGAPLIDHLVGTYENPPRSTVAQAYDFIIETLEEAVTLMSEEKNNGRMNKYAARALLARIYLYHDDNRKAFDLADQLIKDADTSGSYALYPHEKYVAAWSVEAKFGSESFFEIANSVDDTPGRDSWGYLLNWYGYQKGFVTQKYAEQMLADPGDVRGHLLEENKYAGKTVWWLYKLRGTDLKTAPLECNNVVLRLSEVYLIAAEAGCKLGGDAAVQGLGYLNEIVKRGNPDNEVTMADYTLDRVLDERSKELVGEGHRFFDLLRNGKTIVRKGGYHLPSVDEEVDWDFYKCVLPIPEDQFIFSPEMEQNPGYPKN
For B1, the “glycan array binding signal (z-score)” value [1] was 0.315, the “glycan array binding signal (z-score)” value [2] was -0.349 and the “glycan array binding signal (z-score)” value [3] was 0.765. For the same binder, the “glycan array binding signal (z-score)” value [4] was -0.026, the “glycan array binding signal (z-score)” value [5] was 0.127 and the “glycan array binding signal (z-score)” value [6] was 0.877. For the same binder, the “glycan array binding signal (z-score)” value [7] was -0.742, the “glycan array binding signal (z-score)” value [8] was 0.62 and the “glycan array binding signal (z-score)” value [9] was 0.206. The “glycan array binding signal (z-score)” value [10] was 0.943, the “glycan array binding signal (z-score)” value [11] was 0.26 and the “glycan array binding signal (z-score)” value [12] was 0.745. For the same binder, the “glycan array binding signal (z-score)” value [13] was -0.165, the “glycan array binding signal (z-score)” value [14] was -0.04 and the “glycan array binding signal (z-score)” value [15] was -0.219. For the same binder, the “glycan array binding signal (z-score)” value [16] was 1.61, the “glycan array binding signal (z-score)” value [17] was 1.2 and the “glycan array binding signal (z-score)” value [18] was 0.669. The “glycan array binding signal (z-score)” value [19] was 0.292.
